This assay in a line: qHTS Assay for Lipid Storage Modulators in Drosophila S3 Cells.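 On cell number change: cells counted by Cell Tracker Red CMTPX staining in the red channel.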 The settings on record: BODIPY lipid droplet fluorescence, 18-24 h; for cell number change: measured here: cell count max response, cells fed with added oleic acid. The essentials:
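Drosophila S3 cells loaded with oleic acid (400 uM, as added) and compounds at several concentrations; lipid droplets imaged by 488-nm laser-scanning cytometry, 500–530 nm intensity and object ratio to cell channel. Percent activity normalized to 20 uM Triacsin C.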

Where [1] appears, read: measured here: lipid fluorescence (Fed channel) AC50, cells fed with added oleic acid.
The mark [2] stands for this setting: measured here: cell number channel AC50, cells fed with added oleic acid.

Consider 58 compounds from PubChem BioAssay AID2685 (National Center for Advancing Translational Sciences (NCATS), 2010).

The other results are listed elsewhere or left out. Shown are side measurements of this screen, not its main read-out; they come without a call. Compounds called inactive in the main read-out are mostly missing here. The note in brackets gives the kind of curve behind each potency; many fits are weak.

For `Cc1nc(-c2cccc(Cl)c2)n[nH]1`, the cell number change came to 6.45%. Under setting [1], the concentration at half-maximal activity (AC50) is 1.84 µM [rising, full curve, poor fit].

For the compound `CCOC(=O)c1cnc(Nc2nc3ccccc3o2)nc1CSC(=S)N1CCCCC1`, the cell number change is 4.2%.

Take `CSc1cccc(NC(=O)NCc2cccc(CNC(=O)Nc3cccc(SC)c3)c2)c1`: the cell number change was -29.7%. Moreover, under setting [1], the AC50 is 32.6 µM [falling, single point].

On to `Cc1ccc(S(=O)(=O)N(C)C)cc1NC(=O)Nc1c(-c2ccccc2)noc1C`, for which the cell number change was 2.38%. Also, the AC50 under setting [2] was 4.11 µM [falling, single point]. Further, under setting [1], the AC50 was 6.51 µM [falling, single point].

Take `CC1(C)Cc2cccc(OCC(=O)OCc3nnc(-c4ccc([N+](=O)[O-])cc4)o3)c2O1`: the cell number change is -18.9%. The half-maximal activity concentration (AC50) under setting [1] is 0.291 µM [falling, full curve, poor fit].

Turning to `Cc1cccc(NC(=O)Cn2cccc2)c1`, the half-maximal activity concentration (AC50) under setting [1] is 29.1 µM [rising, single point].

For the compound `O=C(/C=C/c1ccccc1)N1CCC(Cc2ccccc2)CC1`, the cell number change is -24.8%. Also, the half-maximal activity concentration (AC50) under setting [1] is 1.03 µM [falling, partial curve].

In the case of `CC1CC(=S)Nc2ccccc2N1Cc1ccccc1` (stereo unspecified), under setting [1], the half-maximal activity concentration (AC50) is 0.164 µM [rising, full curve, poor fit].

With `CC(=O)c1ccc(N2CCN(C(=O)C3CCN(S(=O)(=O)c4ccc(F)cc4)CC3)CC2)cc1`, the cell number change was -36.7%. Moreover, the concentration at half-maximal activity (AC50) under setting [1] is 14.6 µM [falling, partial curve, poor fit].

For `CN(C)CCNc1oc(COc2ccc(-c3ccccc3)cc2)nc1C#N`, the cell number change was -32.8%. In addition, the AC50 under setting [2] is 13 µM [falling, partial curve, poor fit].

`COc1ccc(OCCOc2ccc(C)nc2[N+](=O)[O-])cc1`: the cell number change stood at 38%. In addition, under setting [2], the half-maximal activity concentration (AC50) was 10.3 µM [rising, single point]. The half-maximal activity concentration (AC50) under setting [1] is 14.6 µM [rising, partial curve].

On to `Cc1cc(C)nc(SCc2nc3ncccn3c2Br)n1`, for which the cell number change came to 6.26%. In addition, the AC50 under setting [1] was 2.59 µM [rising, single point].

With `O=C(COc1ccc2c(c1)OCO2)Nc1ccc2c(c1)oc1ccccc12`, the cell number change was -48%. Also, the AC50 under setting [2] was 32.6 µM [falling, single point]. Further, the AC50 under setting [1] is 0.0184 µM [rising, single point].

For the compound `Cc1cc(Cl)c(S(=O)(=O)N2CCN(c3ccc(F)cc3)CC2)cc1OCC(N)=O`, the cell number change is 4.59%. Moreover, under setting [2], the AC50 was 1.84 µM [rising, partial curve, poor fit].

For `OCC[C@H]1C[C@@H](O)[C@H](O)[C@@]2(Cc3ccccc3O2)O1`, the cell number change is -14.4%. In addition, under setting [1], the AC50 was 2.31 µM [rising, partial curve, poor fit].

As for `COc1ccc(CCNC(=O)C(=O)NCCCN2CCOCC2)cc1`, the cell number change came to 80.6%. Also, the concentration at half-maximal activity (AC50) under setting [1] is 29.1 µM [rising, partial curve].

Take `Cc1nn(C(=O)c2ccco2)c(C)c1Sc1ccc(Br)cc1`: the cell number change turned out to be 45.4%. Besides, the AC50 under setting [2] is 25.9 µM [rising, single point]. Further, under setting [1], the AC50 was 20.6 µM [rising, partial curve, poor fit].

For `COc1cc(CNCCO)cc(Cl)c1OCc1ccccc1Cl`, the cell number change was determined as 1.54%.

Turning to `CCOc1cccc(OCCCOc2cccc3cccnc23)c1`, the cell number change worked out at 17.4%. Also, under setting [1], the AC50 was 10.3 µM [rising, partial curve].

As for `CN1CCC(C2(O)c3ccccc3CCc3ccccc32)CC1`, the cell number change is 13.2%. Under setting [1], the AC50 was 2.91 µM [falling, single point].

For the compound `Cc1cc(Br)ccc1OCC(=O)NNC(=O)CCc1ccccc1`, the cell number change is 45.8%. The half-maximal activity concentration (AC50) under setting [2] was 8.2 µM [rising, partial curve, poor fit].

For `COc1ccc(S(=O)(=O)Oc2ccc3ccccc3c2)cc1`, the cell number change was 40.2%. Besides, the half-maximal activity concentration (AC50) under setting [2] is 16.4 µM [rising, single point]. Further, the AC50 under setting [1] was 32.6 µM [rising, single point].

Turning to `Cc1ccc(CN2CC(C(=O)N3CCN(S(=O)(=O)c4c(F)cccc4F)CC3)CC2=O)cc1` (stereo unspecified), the cell number change turned out to be 14.5%.

In the case of `O=S(=O)(Nc1ccc(O)c(Sc2nc3ccccc3s2)c1)c1cccc2ccccc12`, the cell number change is -14.9%. Also, the concentration at half-maximal activity (AC50) under setting [1] was 10.3 µM [falling, single point].

`CCOc1ccccc1OCCC(=O)NNC(=O)Cn1nc(C)cc1C`: the cell number change is -28.5%. Further, the AC50 under setting [2] is 0.651 µM [falling, full curve, poor fit].

As for `Cc1ccc(C(=O)N/C(=C\c2cn(S(=O)(=O)N(C)C)c3ccccc23)C(=O)N2CCCC2)cc1`, the AC50 under setting [1] is 0.58 µM [rising, single point].

On to `Cc1ccccc1OCCC(=O)OCC(=O)NC1CC1`, for which the cell number change worked out at 15.7%. Besides, the AC50 under setting [1] was 29.1 µM [falling, single point].

In the case of `CCOc1ccc(N(CC(=O)NCCc2ccccc2)C(=O)c2csnn2)cc1`, the cell number change is -12.4%. Further, the AC50 under setting [1] is 6.51 µM [rising, single point].

Consider `CCOC(=O)c1c(CN(C)C)oc2cc(CN(C)C)c(O)c(CSc3ccccc3)c12`, for which the cell number change was -14.2%. Besides, the AC50 under setting [2] was 0.92 µM [rising, full curve, poor fit].

Regarding `COc1ccc(C(=O)NC2=NCCS2)c(OC)c1`, the cell number change is -27%. The AC50 under setting [1] was 29.1 µM [falling, single point].

In the case of `COc1ccc(-c2cc(C(F)(F)F)nc(SCC(=O)NCc3cccs3)n2)cc1`, the concentration at half-maximal activity (AC50) is, setting by setting: under setting [2], 2.06 µM [rising, partial curve]; under setting [1], 6.51 µM [rising, single point].

Turning to `CCCCCC(=O)N1CC2(C)CN(C(=O)CCCCC)CC(C)(C1)C2=O`, the cell number change is 17.4%. The AC50 under setting [2] was 0.731 µM [falling, full curve]. Further, the AC50 under setting [1] was 0.58 µM [falling, single point].

In the case of `N#Cc1c(NCCCO)nc(-c2ccco2)c2c1CCCC2`, the cell number change stood at 63.9%. The concentration at half-maximal activity (AC50) under setting [2] is 7.31 µM [rising, partial curve]. Besides, the AC50 under setting [1] is 4.11 µM [falling, single point].

Consider `COC(=O)CSc1ccc(-c2nc3ccc(C)cc3[nH]2)cn1`, for which the cell number change is -22.4%. For the same compound, the AC50 under setting [2] was 3.26 µM [falling, single point]. Besides, the AC50 under setting [1] is 3.26 µM [falling, full curve].

For `C=CCn1c(SCC(=O)Nc2ccccc2CC)nnc1-c1ccncc1`, the cell number change stood at 69.4%. For the same compound, the half-maximal activity concentration (AC50) under setting [2] was 11.6 µM [rising, partial curve]. In addition, the concentration at half-maximal activity (AC50) under setting [1] was 2.31 µM [rising, full curve, poor fit].

For `COc1ccc(C2C(C(=O)c3sc(C)nc3C)=C(O)C(=O)N2CCN(C)C)cc1` (stereo unspecified), the cell number change is -49%. For the same compound, the AC50 under setting [2] is 0.291 µM [falling, full curve]. Also, under setting [1], the half-maximal activity concentration (AC50) is 29.1 µM [falling, single point].

On to `CC1CN(C(=O)c2cccc(C(=O)N3CC(C)OC(C)C3)c2)CC(C)O1` (stereo unspecified), for which the half-maximal activity concentration (AC50) under setting [1] is 2.06 µM [falling, single point].

Take `COc1ccc(-c2nc(CS(=O)(=O)CC(=O)Nc3ccc(Cl)cc3)c(C)o2)cc1`: the cell number change was determined as 13.1%.

For the compound `O=C(CCC(=O)c1cccs1)NCc1cccnc1`, the cell number change was -14.8%. The half-maximal activity concentration (AC50) under setting [1] was 0.651 µM [falling, partial curve, poor fit].

Turning to `O=c1cc(O)n(-c2ccc(Cl)cc2)c(=S)[nH]1`, the AC50 under setting [1] is 0.00461 µM [falling, full curve, poor fit].

With `CCOC(=O)c1sc(NC(=S)NC(=O)CC(C)C)cc1C`, the cell number change is -36.7%. Under setting [2], the concentration at half-maximal activity (AC50) is 13 µM [falling, partial curve, poor fit]. Under setting [1], the AC50 is 20.6 µM [falling, partial curve, poor fit].

Regarding `C/C(=N/NS(=O)(=O)c1ccccc1)c1ccc(NC(=O)C2CC2)cc1`, the cell number change came to 3.95%. The concentration at half-maximal activity (AC50) under setting [1] was 0.259 µM [rising, partial curve, poor fit].

On to `Cc1noc(C)c1C(=O)OCC(=O)Nc1cccc(S(N)(=O)=O)c1`, for which the cell number change was 158%.

As for `CN(C)S(=O)(=O)N1CCc2ccc(NC(=O)C3CCCO3)cc2C1` (stereo unspecified), the cell number change is -4.7%.

For `O=C(Nc1cccc(F)c1)N1CCN(C/C=C/c2ccccc2)CC1`, the half-maximal activity concentration (AC50) was 1.84 µM [rising, partial curve] under setting [2] and 0.82 µM [rising, single point] under setting [1].

In the case of `Cc1ccc(S(=O)(=O)N2[C@@H](c3ccccc3)C(C(=O)O)=CC[C@H]2c2ccc(Cl)c(Cl)c2)cc1`, the cell number change was -19%. The AC50 under setting [1] is 29.1 µM [rising, single point].

In the case of `Cc1cccc(OCCCCCN2CCOCC2)c1`, the AC50 is 0.58 µM [rising, single point] under setting [2] and 0.58 µM [falling, single point] under setting [1].

Turning to `O=C(O)c1cc(N/N=C/c2ccc(-c3ccc(F)cc3)o2)ccc1Cl`, the cell number change amounted to 16.2%. Also, the concentration at half-maximal activity (AC50) under setting [1] was 0.231 µM [falling, full curve, poor fit].

In the case of `Cc1nn(-c2ccccc2)c(N2CCCC2)c1/C=N/NC(=O)c1cc2ccccc2cc1O`, the cell number change was found to be 6.94%. Also, the half-maximal activity concentration (AC50) under setting [1] is 8.2 µM [rising, partial curve, poor fit].

As to `O=C1CCCCc2sc(Br)c([N+](=O)[O-])c2N1`, the cell number change was -43.8%. Under setting [2], the half-maximal activity concentration (AC50) is 18.4 µM [falling, single point]. Also, under setting [1], the AC50 was 29.1 µM [falling, single point].

As to `CCCCOc1ccc(CNC(=S)N/N=C/c2ccc(OC)c(OC)c2)cc1`, the cell number change was 37.4%. Also, the concentration at half-maximal activity (AC50) under setting [2] was 29.1 µM [rising, single point].

`CCc1ccc(NC(=O)NNC(=O)CCc2ccccc2)cc1`: the cell number change turned out to be 1.98%.

On to `N#Cc1c2n(c3c(=O)n(Cc4ccc(Cl)cc4)cnc13)CCCCC2`, for which the cell number change is -10.5%.

Take `COc1ccccc1CNC(=O)N[C@@H](Cc1ccccc1)C(=O)O`: the cell number change is 12.2%. Also, the concentration at half-maximal activity (AC50) under setting [1] was 0.651 µM [falling, single point].

Turning to `Cn1cc(CCC(=O)N2CCCC(C(=O)c3cccc4ccccc34)C2)cn1` (stereo unspecified), the cell number change was -28.9%. The AC50 under setting [1] is 25.9 µM [falling, single point].

As for `CCN(CC)CCCNc1oc(-c2ccccc2[N+](=O)[O-])nc1C#N`, the cell number change was -33.5%. Besides, under setting [2], the AC50 is 29.1 µM [falling, single point]. Moreover, the AC50 under setting [1] is 20.6 µM [falling, single point].

As for `COc1ccccc1OCCSc1nc2ccccc2n1CC(N)=O`, the cell number change worked out at 47.2%. For the same compound, the AC50 under setting [2] was 16.4 µM [rising, partial curve, poor fit].

Turning to `CCCNC(=O)NC(=O)CSc1nnc(-c2ccncc2)n1CC`, the cell number change came out at 2.2%. Moreover, the AC50 under setting [1] was 29.1 µM [rising, single point].
